Drawing on article PMC10480500, this text covers binding for one substance.

The chains behind the UniProt entries cited, without tags or fusion partners. Where a name states a change or a piece, a line headed by the entry shows the natural chain unless it says otherwise.
UniProt P69541: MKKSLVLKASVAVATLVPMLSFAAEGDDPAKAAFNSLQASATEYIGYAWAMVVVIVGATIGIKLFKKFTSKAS

No constants are given. Whether binding was seen depends on the method and setting. Binding calls can cover weak binding; strength is not graded here.

Experiment [1] has as its target T1, minor coat protein pIX (bacteriophage M13) (UniProt P69538).
T1 sequence: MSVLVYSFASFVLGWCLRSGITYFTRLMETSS
Nature of the experiment: cryo-EM structure; purified M13 mini phage particle (assembled in E. coli TG1 with helper phage M13KO7), 0.6-0.8 mg/ml; whole particle 3.5 Å with 5-fold symmetry; top, middle and bottom segments refined separately at 3.5, 3.1 and 3.3 Å; both purified.

In experiment [2] the target is T2, minor coat protein pVII (bacteriophage M13) (UniProt P69535).
T2 sequence: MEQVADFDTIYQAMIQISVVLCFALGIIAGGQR
Described as above.

For “major coat protein pVIII (from UniProt P69541)”, the binding entry in experiment [1] and in experiment [2] was “binds” in each case.
